Some of the results follow.
Assays:
Test in all cases: log2 fold change, soluble protein after heating vs DMSO (PISA); higher = thermal stabilisation; K562 lysate, 10 uM; active = over 0.2 and 3.5 SD of the protein, either way, in both replicates (recomputed)
[1] = compound: C#Cc1cccc(Nc2ncnc3cc(OCCOC)c(OCCOC)cc23)c1 [erlotinib]
Procedure, shortened: (§1)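 Quantification was by TMTpro 16plex LC-MS/MS with equalised channel sums, applied to the supernatant after 21,000xg for 90 min. Samples were crude K562 extract at 1 mg/mL protein in PBS pH 7.4 with 1 mM MgCl2, treated with 10 μM compound for 30 min, heated for 3 min across 48°C-58°C, pooled and brought to 0.5% NP-40 at 4°C. Values are log-two fold changes in thermal stability relative to solvent controls, from duplicates.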

Sequences of proteins named here, by UniProt entry; tags and fusion partners are left off. A change or cut given only in a name is not applied to a line headed by its entry.
UniProt Q9Y2B2: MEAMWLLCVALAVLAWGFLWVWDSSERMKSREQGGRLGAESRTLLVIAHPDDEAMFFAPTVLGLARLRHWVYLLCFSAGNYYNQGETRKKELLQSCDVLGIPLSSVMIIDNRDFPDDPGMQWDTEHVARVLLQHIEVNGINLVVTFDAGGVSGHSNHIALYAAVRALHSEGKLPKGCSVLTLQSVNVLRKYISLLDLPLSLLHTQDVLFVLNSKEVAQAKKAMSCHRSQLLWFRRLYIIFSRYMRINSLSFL
UniProt Q14442: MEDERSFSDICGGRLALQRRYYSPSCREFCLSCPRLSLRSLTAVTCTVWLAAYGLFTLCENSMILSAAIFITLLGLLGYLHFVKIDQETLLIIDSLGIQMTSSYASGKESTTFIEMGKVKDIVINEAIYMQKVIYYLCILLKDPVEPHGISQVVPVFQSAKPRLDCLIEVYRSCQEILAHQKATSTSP
UniProt Q9BSJ6: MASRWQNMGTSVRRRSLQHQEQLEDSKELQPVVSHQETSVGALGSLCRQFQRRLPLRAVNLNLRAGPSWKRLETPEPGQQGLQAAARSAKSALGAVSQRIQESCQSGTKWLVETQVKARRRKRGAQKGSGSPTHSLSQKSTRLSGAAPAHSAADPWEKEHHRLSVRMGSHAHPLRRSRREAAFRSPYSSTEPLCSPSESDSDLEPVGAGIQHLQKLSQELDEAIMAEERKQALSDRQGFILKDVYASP

[2] = compound: C1=CC(=CC=C1C2=NC3=C(N2)C=C(C=C3)C(=O)N)OC4=CC=C(C=C4)Cl
Procedure, shortened: as §1

[3] = compound: C1=CC2=NC=CN=C2C=C1/C=C/3\C(=O)NC(=O)S3
Procedure, shortened: as §1

[4] = compound: C1=CC=C(C=C1)C2=NC(=C(N2)C3=CC=NC=C3)C4=CC(=C(C=C4)Cl)O
Procedure, shortened: as §1

[5] = compound: C1CCN(C1)C(=O)NC2=CC=CC(=C2)NC3=NC=C(C(=N3)NCCC4=CN=CN4)Br
Procedure, shortened: as §1

[6] = compound: C1CN(CCC1(CC2=CC=C(C=C2)Cl)N)C3=NC=NC4=C3C=CN4
Procedure, shortened: as §1

[7] = compound: C1COCCN1CCN2C3=CC=CC=C3N=C2NC(=O)C4=CC(=CC=C4)[N+](=O)[O-] [IRAK-1-4 Inhibitor I]
Procedure, shortened: as §1

[8] = compound: C=CC(=O)N1CCC[C@@H](n2nc(-c3ccc(Oc4ccccc4)cc3)c3c(N)ncnc32)C1 [ibrutinib]
Procedure, shortened: as §1

[9] = compound: CC(=O)c1cnc2ccc(-c3cc(Cl)c(O)c(Cl)c3)nc2c1N[C@H]1CC[C@H](CN(C)C)CC1
Procedure, shortened: as §1

[10] = compound: CC(C)(C)Cn1c(N)nc2ccc(-c3[nH]c(C(C)(C)C)nc3-c3ccc(F)cc3)nc21 [ralimetinib]
Procedure, shortened: as §1

[11] = compound: CC(C)(O)CC(=O)NCCn1ccc2ncnc(Nc3ccc(Oc4cccc(C(F)(F)F)c4)c(Cl)c3)c21
Procedure, shortened: as §1

[12] = compound: CC(C)C1=C2N=C(C=C(N2N=C1)NCC3=CC=CC=C3)NCCCCCCN
Procedure, shortened: as §1

[13] = compound: CC1=C(C2=C(C=C1)C(=O)C3=CC=CC=C3N2CCCN)C
Procedure, shortened: as §1

[14] = compound: CC1=C(C=C(C=C1)NC(=O)C2=CC(=CC=C2)C(C)(C)C#N)NC3=CC4=C(C=C3)N=CN(C4=O)C
Procedure, shortened: as §1

[15] = compound: CC1=C(C=C(C=C1)NC(=O)C2=CC(=CC=C2)N(C)C)NC(=O)C3=CC=C(C=C3)O
Procedure, shortened: as §1

[16] = compound: CC1=CC=C(C=C1)SC2=C3C=C(SC3=CN=C2)C(=O)N
Procedure, shortened: as §1

[17] = compound: C/C(=N\NC(=O)C1=CC(=CC=C1)S(=O)(=O)N2CCOCC2)/C3=C(C=CC(=C3)Cl)O
Procedure, shortened: as §1

[18] = compound: C1=CC2=C(C=CC(=C2)/C=C\3/C(=O)NC(=NCC4=CC=CS4)S3)N=C1
Procedure, shortened: as §1

[19] = compound: C1=CC=C2C(=C1)C3=NNC4=CC=CC(=C43)C2=O
Procedure, shortened: as §1

Measured: log2 fold change

PIGL (UniProt Q9Y2B2)
inactive: [1] -0.117 | [2] 0.221 | [3] -0.003 | [4] 0.001 | [5] -0.119 | [6] 0.145 | [7] 0.098 | [8] 0.024 | [9] -0.018 | [10] -0.089 | [11] -0.11 | [12] -0.034 | [13] -0.604 | [14] -0.128 | [15] 0.075 | [16] 0.067

PIGH (UniProt Q14442)
inactive: [1] -0.02 | [17] 0.035 | [2] 0.071 | [18] -0.022 | [3] 0.143 | [19] -0.095 | [8] 0.076 | [9] 0.033 | [12] -0.1 | [14] -0.137 | [16] -0.149

PKM (UniProt H3BTN5)
inactive: [1] -0.186 | [17] -0.052 | [2] -0.087 | [18] -0.07 | [3] 0.052 | [19] 0.047 | [5] 0.021 | [6] 0.024 | [8] 0.013 | [9] 0.094 | [12] 0.034 | [14] 0.012 | [16] -0.295

PIMREG (UniProt Q9BSJ6)
inactive: [1] -0.362 | [2] -0.066 | [3] 0.145 | [4] -0.032 | [7] 0.004 | [8] 0.14 | [10] 0.027 | [11] 0.11 | [12] -0.235 | [14] 0.129 | [15] -0.181

From the supplement of paper PMC10849652
